# Laboratory results as given in PubChem BioAssay AID493014 (National Center for Advancing Translational Sciences (NCATS), 2011).
# Some of the results follow. Shown are side measurements of this screen, not its main read-out; they come without a call. Compounds called inactive in the main read-out are mostly missing here. The note in brackets gives the kind of curve behind each potency; many fits are weak.
# Assay: qHTS Assay to Find Inhibitors of Chronic Active B-Cell Receptor Signaling
# Details: ABC-DLBCL IkBa-CBG/CBR reporter, luminescence ratio (green luciferase fused to IkBa over red control in TMD8 lymphoma cells), 4 h
# In short: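 TMD8 human ABC-DLBCL cells with doxycycline-inducible IκBα–green luciferase fusion and unfused red luciferase, in 0.5% FBS medium; compounds up to 46 uM, 4 h at 37C. Green/red luminescence ratio, filter-overlap corrected, fitted to concentration-response curves.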
# [1] = measured here: CBR red luminescence, cell number
# [2] = measured here: IkBa-CBG green luminescence
SMILES,AC50 [1],AC50 [2]
O=c1c2ccccc2[nH]c(=S)n1-c1ccc2c(c1)OCCO2,"28.2 µM [falling, partial curve, poor fit]",–
Cc1ccc2c(c1)C1CN(C)CCC1N2C(=O)Nc1cccc(Cl)c1 (centres undefined),"3.16 µM [rising, single point]",–
COc1ccc(CCn2c(O)c(C=NCc3ccc4c(c3)OCO4)c(=O)[nH]c2=O)cc1OC,"4.47 µM [rising, full curve, poor fit]",–
O=C(COC(=O)c1cc([N+](=O)[O-])ccc1N1CCOCC1)Nc1ccc(Cl)cc1,"35.5 µM [falling, single point]",–
COc1ccc(CC2C(=O)N(c3ccccc3)C(=O)N(c3ccccc3)C2=O)c(OC)c1,"18.4 µM [falling, single point]",–
COC12C(COC(N)=O)C3=C(C(=O)C(C)=C(N)C3=O)N1CC1C2N1C (centres undefined),"17.8 µM [rising, single point]",–
CCOC(=O)CC(NC(=O)C(Cc1ccc(N(CCCl)CCCl)cc1)NC(C)=O)C(=O)OCC (centres undefined),"7.08 µM [falling, full curve, poor fit]",–
CCOc1cc2c(cc1OCC)-n1cccc1C(c1ccccc1OC)NC2 (centres undefined),"22.4 µM [falling, single point]",–
CC(=O)C1(c2ccccc2)CCNCC1,"0.731 µM [rising, full curve, poor fit]",–
O=C(Nc1ccc(N2CCOCC2)cc1)c1cccc2ccccc12,"10 µM [falling, partial curve]",–
Cc1ccc(/C(N)=N/OC(=O)CCC2CCCC2)cc1,"11.2 µM [rising, single point]",–
CCC(=NCCCn1ccnc1)c1c(O)n(-c2ccccc2)c(=O)[nH]c1=O,"8.91 µM [falling, partial curve, poor fit]",–
COCc1cc(OC(=O)N(C)C)nc(-c2ccc(C)c(Cl)c2)n1,"0.112 µM [rising, full curve, poor fit]",–
O=c1[nH]cnc2[nH]ncc12,"3.98 µM [rising, partial curve, poor fit]",–
CN(C)c1nc(-c2ccccc2)[n+](C)s1,"3.16 µM [falling, partial curve]",–
CN(C)C(=O)Oc1ccc(OCc2cccc[n+]2C)cc1,"20.6 µM [rising, partial curve, poor fit]",–
CN1C(=O)C(=Cc2ccc(SC3CCCCC3)o2)C(=O)N(C)C1=O,"3.55 µM [falling, full curve, poor fit]",–
COC(=O)C1=C(c2cccc(OCc3ccccc3)c2)C[C@@H]2CC[C@H]1N2C(=O)NC1CCN(Cc2ccccc2)CC1,"29.1 µM [falling, single point]",–
OC(c1ccccc1)(c1ccccc1)C1CN2CCC1CC2 (centres undefined),"10 µM [falling, partial curve, poor fit]",–
O=C(Cn1cc(C(=O)c2ccccc2F)c2ccccc21)NCc1ccco1,"4.11 µM [rising, full curve, poor fit]",–
CSc1ccc(CN2CCN(Cc3ccccc3Cl)CC2)cc1,"31.6 µM [rising, single point]",–

# Laid out differently: results already given
SMILES | AC50 [1] | AC50 [2]
CN1C(=O)C(=Cc2ccc(SC3CCCCC3)o2)C(=O)N(C)C1=O | 3.55 µM [falling, full curve, poor fit] | –
COC(=O)C1=C(c2cccc(OCc3ccccc3)c2)C[C@@H]2CC[C@H]1N2C(=O)NC1CCN(Cc2ccccc2)CC1 | 29.1 µM [falling, single point] | –
OC(c1ccccc1)(c1ccccc1)C1CN2CCC1CC2 (centres undefined) | 10 µM [falling, partial curve, poor fit] | –

# More compounds

SMILES,AC50 [1],AC50 [2]
O=C1NC(=O)C(=Cc2ccc(-c3ccc(F)cc3O)o2)C(=O)N1,"14.1 µM [rising, partial curve]","25.1 µM [falling, single point]"
Cc1ccccc1CN1C(=O)CN=C(c2ccccc2)c2cc(Cl)ccc21,"11.2 µM [falling, single point]",–
O=C1/C(=C\c2ccc(Cl)cc2Cl)N2CCC1CC2,"0.794 µM [falling, full curve, poor fit]",–
CC(C(=O)c1cn(C)c2ccccc12)c1ccccc1 (centres undefined),"29.1 µM [falling, single point]",–
CCOP(=O)(OCC)C(NC(=O)C(Cl)Cl)C(Cl)(Cl)Cl (centres undefined),"3.16 µM [falling, single point]",–
O=P(NC(c1ccccc1)c1ccccc1)(Oc1ccccc1)Oc1ccccc1,"6.51 µM [rising, partial curve]",–
Cc1nc2cc(-c3cccc(F)c3)nn2c(C)c1CCC(=O)N1CCC2(CC1)OCCO2,"3.16 µM [falling, full curve]",–
C[C@@H]1C[C@@H]2O[C@H]2/C=C\C=C\C(=O)Cc2c(Cl)c(O)cc(O)c2C(=O)O1,"0.316 µM [falling, full curve, poor fit]",–
CCCCCCOc1ccc(CN2CCN(CC)CC2)cc1,"29.1 µM [falling, single point]",–
O=C(Cn1c(=O)oc2ccccc21)Nc1ccc(F)c(F)c1,"8.91 µM [falling, partial curve]",–
CNC(=O)Oc1cccc(-c2cn3cc(OC(=O)NC)ccc3n2)c1,"8.2 µM [falling, partial curve, poor fit]",–
Nc1c(C(=O)OCC2CCCO2)c2nc3ccccc3nc2n1Cc1cccs1 (centres undefined),"11.2 µM [falling, partial curve, poor fit]",–
CC(=O)Nc1ccc(N=Cc2c(O)n(Cc3ccco3)c(=O)[nH]c2=O)cc1,"5.62 µM [falling, single point]",–
CC(=O)OCC[N+](C)(C)C,"25.9 µM [rising, single point]",–
CCN(CC)c1ccc(N=Cc2c(O)n(Cc3ccco3)c(=O)[nH]c2=O)cc1,"3.16 µM [falling, partial curve, poor fit]",–
O=C(NC(=O)c1c(F)cccc1F)Nc1cc(Cl)c(F)c(Cl)c1F,"0.1 µM [falling, full curve, poor fit]",–
NC1=C([N+](=O)[O-])C(c2ccc3c(c2)OCO3)c2c(c3ccccc3oc2=O)O1 (centres undefined),"1 µM [falling, full curve]",–
Cn1cccc1/C=N/NC(=O)c1cccs1,"8.91 µM [falling, partial curve]",–
Clc1ccc2sc(C3CCNCC3)nc2c1,"12.6 µM [falling, partial curve]",–
COC(=O)c1sc(NC(=O)c2cc(-c3ccccc3)nc3ccccc23)c(C#N)c1C,"15.8 µM [falling, partial curve, poor fit]",–
O=C(CC1CCCCC1)c1c(O)c2ccccc2oc1=O,"6.51 µM [falling, partial curve]",–

SMILES,AC50 [1],AC50 [2]
Cc1ccc(OCCOc2cccc(C=C3C(=O)NC(=O)NC3=O)c2)cc1,"6.31 µM [falling, full curve]",–
CCCCCn1c(=O)c(C(=O)Nc2ccccc2)c(O)c2ccccc21,"3.16 µM [falling, partial curve, poor fit]",–
CN1C(=O)/C(=C/c2cccn2-c2ccc3ccccc3c2)C(=O)NC1=S,"3.16 µM [falling, single point]",–
COc1ccc(C(=O)OC2CC[C@@]3(C)C4CCC5[C@]6(O)CC(O)[C@@]7(O)C(CN8CC(C)CCC8[C@@]7(C)O)[C@]6(O)C[C@@]53O[C@]24O)cc1OC (some centres undefined),"20 µM [rising, single point]",–
CCOC(=O)c1cnc2c(C(=O)OCC)cnn2c1N,"3.98 µM [rising, partial curve, poor fit]",–
COc1ccc(OC)c(-n2c(O)c(/C=C3\C=Nc4ccccc43)c(=O)[nH]c2=O)c1,"0.501 µM [rising, full curve, poor fit]",–
Cc1nc2cc(C(F)(F)F)ccc2n1C1CCN(Cc2nnnn2CCc2ccccc2)CC1,"2.06 µM [falling, full curve]",–
O=C1NC(=O)N(Cc2ccco2)C(=O)/C1=C\c1cccn1CCOc1ccc(Cl)cc1,"23.1 µM [rising, single point]","16.4 µM [falling, partial curve, poor fit]"
CCOC(=O)c1ccc(-[n+]2c(-c3ccccc3)cc(-c3ccccc3)cc2-c2ccccc2)cc1,"16.4 µM [falling, single point]",–
COc1ccccc1-n1c(O)c(/C=N/N2CCCCC2)c(=O)n(-c2ccccc2OC)c1=S,"11.2 µM [falling, partial curve, poor fit]",–
CC[N+](CC)(CC)CCCCCCCCCC[N+](CC)(CC)CC,"0.00517 µM [falling, full curve, poor fit]",–
COc1cc(-c2noc(C)c2/C=C/c2ccc(OC(C)=O)cc2)cc(OC)c1OC,"8.91 µM [rising, partial curve]",–
CSc1ccc(C(=O)C2CCCN(Cc3cc4ccccc4[nH]3)C2)cc1 (centres undefined),"0.794 µM [falling, partial curve, poor fit]",–
CC(=O)Nc1cccc2c1Cc1ccccc1-2,"17.8 µM [rising, partial curve]",–
COC(=O)C1=C(c2ccc(-c3ccccc3)c(F)c2)C[C@@H]2CC[C@H]1N2C(=O)NCC1CC1,"23.1 µM [falling, partial curve, poor fit]",–
C/C(=N/OC(=O)N(C)C)c1ncc(C(F)(F)F)cc1N1CCOCC1,"3.66 µM [rising, partial curve, poor fit]",–
O=[N+]([O-])c1cc(S(=O)(=O)c2ccc(O)c([N+](=O)[O-])c2)ccc1O,"0.651 µM [falling, full curve, poor fit]",–
CCC(=O)c1cn(Cc2ccc(C#N)cc2)c2ccccc12,"7.31 µM [falling, partial curve, poor fit]",–
Cc1ccc(-n2c(/C=C/c3ccc(Br)s3)nc3ccccc3c2=O)cc1,"4.47 µM [rising, full curve]",–
c1ccc(-c2ccc(-c3n(-c4ccccn4)c4ccccc4[n+]3-c3ccccn3)cc2)cc1,"12.6 µM [falling, single point]",–

# Taken from above.
# In AC50 [1], `COC(=O)C1=C(c2ccc(-c3ccccc3)c(F)c2)C[C@@H]2CC[C@H]1N2C(=O)NCC1CC1` reads 23.1 µM [falling, partial curve, poor fit]
# In AC50 [1], `C/C(=N/OC(=O)N(C)C)c1ncc(C(F)(F)F)cc1N1CCOCC1` reads 3.66 µM [rising, partial curve, poor fit]
